Data reported in PubChem BioAssay AID624297 (National Center for Advancing Translational Sciences (NCATS), 2012).
In all, about 340,000 compounds went through this assay and about 6,200 (1.8%) were called active. Inconclusive results, whose numbers are uncertain, are shown with a selection of clear calls. Calls follow the shape of the dose curve; as a rule, active = well fitted activation curve with a large enough effect; inconclusive = small, poorly fitted or top-dose-only effect; inactive = no such curve, though single readings can be large or run the other way. A potency beside an inconclusive call is a rough fit, not a confirmed value.
Potency is read from the fitted curve at half-maximal effect.

Experiment: A quantitative high throughput screen for small molecules that induce DNA re-replication in SW480 colon adenocarcinoma cells. Also: nearly all actives have a fitted effect of over 55% in size. As to re-replication activation: % of control where 0% means no effect.
Settings: Hoechst DNA content imaging, 48 h; re-replication activation: at 46.1 µM (top of the series) unless noted
Procedure, shortened: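 DNA re-replication was detected as more nuclei of elevated Hoechst intensity after 48 hr exposure to compound (23 nL pinned per well of 250 cells).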
In the case of `O=C(NCc1ccc(F)cc1)c1noc2c1CCCCC2`, the “re-replication activation” value is reported as inactive: 0.299%.
With `O=C(NC(=S)Nc1ccccc1)C1CCCCC1` the “re-replication activation” value was inactive: 16.5%.
In the case of `COc1ccc(CCNc2nc(C)nc3c2oc2ccccc23)cc1OC`, the “re-replication activation” value is reported as inactive: 6.68%.
For `Cc1ccc(-c2nnc3n2N=C(c2ccccc2Br)CS3)cc1`, the “re-replication activation” value was inactive: -14.5%.
In the case of `CN(Cc1ccccc1)C(=O)c1cccc(NC(=O)Cc2ccc([N+](=O)[O-])cc2)c1`, the “re-replication activation” value is reported as inactive: -8.67%.
With `CCOc1ccc(NC(=O)CSc2ccccc2N)cc1` the “re-replication activation” value was inactive: 1.42%.
For `COC(=O)c1cnc(Nc2cc(C)ccc2OC)c2ccccc12`, the Potency was inconclusive: 29.1 µM [activator, single point].
With `CCn1c(SCC(=O)NC2CC2)nnc1-c1cccs1` the Potency was inconclusive: 1.64 µM [activator, partial curve, poor fit].
For `CC/C(C)=N/Nc1nc2sc3c(c2c(=O)[nH]1)CC(C)(C)OC3`, the Potency was inconclusive: 29.1 µM [activator, single point].
With `N#Cc1c(NC(=O)c2cc(C3CC3)on2)sc2c1CCC2` the Potency was active: 20.6 µM.
For `COC(=O)C1=C(C)OC(N)=C(C#N)C1c1cccnc1` (stereo unspecified), the “re-replication activation” value was inactive: 0.682%.
For `CCC(c1nnnn1CS(=O)(=O)c1ccc(C)cc1)N1CCN(c2nc3ccccc3s2)CC1` (stereo unspecified), the Potency was inconclusive: 1.16 µM [activator, partial curve, poor fit].
For `CCOc1ccc2nc(Cl)c(C3CC(c4ccco4)=NN3S(=O)(=O)c3ccccc3)cc2c1` (stereo unspecified), the Potency was inconclusive: 20.6 µM [activator, partial curve, poor fit].
For `Cc1ccc(NC(=O)CNc2ccccc2CN(C)C2CCCCC2)cc1`, the Potency was inconclusive: 23.1 µM [activator, single point].
With `O=C(CN1CCN(CC(=O)c2ccccc2)CC1)c1ccccc1` the “re-replication activation” value was inactive: 91.6%.
In the case of `Cc1ccc(S(=O)(=O)Nc2cncnc2NS(=O)(=O)c2ccc(C)cc2)cc1`, the Potency is reported as inconclusive: 29.1 µM [activator, partial curve, poor fit].
For `CCOC(=O)c1cc(-c2ccc(OC)cc2)n(CCC(=O)NCCN2CCC(C)CC2)c1C`, the Potency was inconclusive: 18.4 µM [activator, single point].
In the case of `COc1ccc2[nH]c3c(c2c1)CCN1C(=O)C(CC(=O)NC/C=C(\C)CCC=C(C)C)C[C@H](C(=O)N(C(C)C)C(C)C)[C@@]31C` (stereo partly specified), the Potency is reported as inconclusive: 29.1 µM [activator, partial curve, poor fit].
In the case of `Cc1ccc(C(=O)N2CCC3(CC2)Oc2ccc(Cl)cc2C(=O)C32CC(c3ccc(Cl)cc3)=NO2)s1` (stereo unspecified), the Potency is reported as inconclusive: 6.51 µM [activator, single point].
For `CCCN=C1N(C)C[C@@H]2[C@@H]3C(=O)N(C)C(=O)[C@@H]3[C@](CC)(C(=O)OC)N12`, the re-replication activation was inactive: -1.35% [at 9.22 µM].
For `COc1ccccc1/C=C/CN1CCCC(CO)(Cc2cccc(Cl)c2)C1` (stereo unspecified), the Potency was inconclusive: 16.4 µM [activator, partial curve, poor fit].
For `COc1cccc(CN2CCC(Oc3ccc(C(=O)NCc4ccccn4)cc3)CC2)c1`, the Potency was inconclusive: 29.1 µM [activator, single point].
For `CCc1cccc(CC)c1NC(=S)NCCc1c(C)[nH]c2ccccc12`, the Potency was inconclusive: 29.1 µM [activator, single point].
With `O=C(NN1C(=O)c2ccccc2NC1c1ccc([N+](=O)[O-])o1)c1ccccc1` (stereo unspecified) the Potency was inconclusive: 29.1 µM [activator, single point].
In the case of `CCCOc1ccc(NC(=O)CC2C(=O)N(CC)C(=S)N2CCCN2CCN(Cc3ccccc3)CC2)cc1` (stereo unspecified), the Potency is reported as inconclusive: 23.1 µM [activator, single point].
With `CCN(CC)S(=O)(=O)c1cccc(-c2nnc(SCCOc3ccc(Cl)cc3)o2)c1` the “re-replication activation” value was inactive: 18.2%.
In the case of `O=C(Nc1nc(-c2cc(F)ccc2F)cs1)c1ccccn1`, the Potency is reported as inconclusive: 29.1 µM [activator, single point].
For `C/C(=N\NC(=O)c1nnn(-c2nonc2N)c1CN1CCCCC1)c1ccccc1O`, the Potency was active: 14.6 µM.
For `CCOC(=O)Cc1nnc(NC(=O)CCc2ccccc2)s1`, the “re-replication activation” value was inactive: 6.34%.
For `CC(=O)Nc1ccc(NC(=O)Cn2cnc(S(=O)(=O)N3CCOCC3)c2)cc1`, the Potency was inconclusive: 20.6 µM [activator, single point].
With `O=C(NCCN1CCN(c2ccccc2F)CC1)c1ccc2nc3ccccc3c(=O)n2c1` the Potency was inconclusive: 23.1 µM [activator, partial curve, poor fit].
In the case of `COc1cccc(OCC(O)CN2CCN(C(c3ccccc3)c3ccccc3)CC2)c1` (stereo unspecified), the Potency is reported as inconclusive: 29.1 µM [activator, single point].
With `Cc1cc(N2CCCC2)nc2ccc(NC(=S)NC(C)C)cc12` the Potency was inconclusive: 29.1 µM [activator, single point].
For `Cc1cc(C(=O)COc2ccccc2Cl)c(C)n1-c1ccc2c(c1)OCO2`, the Potency was inconclusive: 29.1 µM [activator, single point].
With `Cn1c2ccccc2c2cc(C(=O)NNC(=O)CCl)sc21` the Potency was inconclusive: 18.4 µM [activator, single point].
In the case of `Cc1ccc(/C=C/C(=O)NCC2COc3ccccc3O2)o1` (stereo unspecified), the “re-replication activation” value is reported as inactive: -3.12%.
In the case of `S=c1[nH]nc(Cc2cccc3ccccc23)n1-c1ccccc1`, the “re-replication activation” value is reported as inactive: 1.89%.
For `N#Cc1cnn(-c2cccc(Cl)c2)c1N`, the “re-replication activation” value was inactive: -7.41%.
For `COC(=O)[C@]1(C)N[C@H](CN(C)S(=O)(=O)c2ccc(OC(F)(F)F)cc2)[C@@H]2C(=O)N(C)C(=O)[C@@H]21`, the “re-replication activation” value was inactive: -18.7%.
For `O=C(NC(=S)Nc1ccccc1Cl)c1csnn1`, the Potency was inconclusive: 29.1 µM [activator, single point].
With `CCOC(=O)N1CCN(c2ncc(C(F)(F)F)cc2Cl)CC1` the Potency was inconclusive: 29.1 µM [activator, single point].
With `COCCNC(=S)N(CCc1c(C)[nH]c2ccc(C)cc12)Cc1ccco1` the Potency was inconclusive: 29.1 µM [activator, single point].
In the case of `Cc1sc2ccccc2[n+]1CC(=O)O`, the Potency is reported as inconclusive: 6.51 µM [activator, single point].
With `O=C(O)c1cccnc1Nc1ccc(Cl)cc1` the Potency was inconclusive: 29.1 µM [activator, single point].
For `O=C(CN1CCC(n2nnc3cc(C(F)(F)F)ccc32)CC1)Nc1ccc2c(c1)CCC2`, the “re-replication activation” value was inactive: -0.839%.
For `O=C(NNC(=O)c1ccccc1O)c1cc2ccccc2o1`, the Potency was inconclusive: 16.4 µM [activator, single point].
With `COc1cc(CNc2ccc3[nH]c(=O)[nH]c3c2)ccc1OCc1ccccc1` the Potency was inconclusive: 18.4 µM [activator, single point].
With `O=C(NC1(C(F)(F)F)N=C(c2ccccc2)NC1=O)c1ccccc1F` (stereo unspecified) the “re-replication activation” value was inactive: 1.06%.
With `CN(C)c1cccc2c1c(NC(=O)c1ccc(F)cc1)nn2C` the “re-replication activation” value was inactive: -11.8%.
In the case of `CCN(C(=O)c1cc2c(=O)n3ccccc3nc2s1)C1CCCCC1`, the Potency is reported as inconclusive: 9.2 µM [activator, partial curve].
In the case of `O=S(=O)(Oc1ccc(C(=S)N2CCOCC2)cc1)c1ccc(Cl)cc1`, the Potency is reported as inconclusive: 8.2 µM [activator, partial curve, poor fit].
For `Cc1nn(-c2ccccc2)c(C)c1C(=O)NNC(=O)C(F)(F)F`, the Potency was inconclusive: 29.1 µM [activator, single point].
In the case of `Cc1ccc(S(=O)(=O)N2CCN(C(=O)c3cccc(-n4cccc4)c3)CC2)cc1`, the Potency is reported as inconclusive: 29.1 µM [activator, single point].
With `Cc1ccccc1N1C(=O)c2cccc3c(N(C)CCO)ccc(c23)C1=O` the Potency was inconclusive: 20.6 µM [activator, single point].
For `Cc1ccc(N2CC(C(=O)O)CC2=O)cc1` (stereo unspecified), the “re-replication activation” value was inactive: 0.472%.
For `Cc1cc(C)c2nc(N3CCC(C(=O)NCc4cccnc4)CC3)sc2c1`, the “re-replication activation” value was inactive: -7.73%.
In the case of `CSCCC(NS(=O)(=O)c1cccc(C(F)(F)F)c1)C(=O)N(C)CCOc1ccc(Cl)cc1` (stereo unspecified), the Potency is reported as active: 5.8 µM.
With `CCOc1ccccc1C1CC(=O)Nc2cc3c(cc21)OCCO3` (stereo unspecified) the Potency was active: 2.91 µM.
For `CSc1nn(-c2ccc(C(=O)OC(C(=O)NC(N)=O)C(C)C)cc2)c(=S)s1` (stereo unspecified), the Potency was inconclusive: 20.6 µM [activator, single point].
In the case of `Cc1ccc(Oc2ccc(/C=N/O)cn2)cc1`, the Potency is reported as inconclusive: 29.1 µM [activator, single point].
With `Cc1ccc(-c2csc(NC(=S)NC(=O)c3ccco3)n2)cc1` the “re-replication activation” value was inactive: -6.71%.
With `CCOC(=O)c1sc2ncn(CC(=O)N(CC)CC)c(=O)c2c1C` the Potency was inconclusive: 9.2 µM [activator, partial curve, poor fit].
With `N#CCCN1CCC(NC(=O)OCc2ccccc2)CCC1=O` (stereo unspecified) the “re-replication activation” value was inactive: -6.64%.
In the case of `Cc1cc(NC(=O)CSc2nc(C(C)C)nc3ccccc23)no1`, the Potency is reported as inconclusive: 14.6 µM [activator, partial curve].
For `N=c1c(C(=O)NC2CCCC2)cc2c(=O)n3ccccc3nc2n1CCN1CCOCC1`, the Potency was active: 2.82 µM.
In the case of `C=CCn1c(SCC(=O)Nc2ccccc2OC)nnc1-c1ccccn1`, the Potency is reported as active: 18.4 µM.
In the case of `Cc1[nH]n(-c2ccccc2)c(=O)c1/C=N\NC(=O)C1COc2ccccc2O1` (stereo unspecified), the Potency is reported as inconclusive: 29.1 µM [activator, single point].
For `O=C(c1ccc(Cl)c(Cl)c1)N1CCC(=O)N(C(COCc2cccc(Cl)c2)Cc2ccccc2)CC1` (stereo unspecified), the Potency was inconclusive: 18.4 µM [activator, single point].
With `COc1cc(=O)[nH]c(SCC(=O)Nc2ccc3ccccc3c2)n1` the Potency was inconclusive: 29.1 µM [activator, single point].
For `Cc1cc(C(=O)NC2CCCc3c2cnn3-c2ccc(C)c(C)c2)no1` (stereo unspecified), the “re-replication activation” value was inactive: -17.9%.
In the case of `O=[N+]([O-])c1ccc(S(=O)(=O)N2CCN=C2SCc2cccnc2)cc1`, the Potency is reported as inconclusive: 16.4 µM [activator, single point].
